These results are taken from publication PMC4275582.

Protein sequences, listed by entry. Tags and fused reporters are not part of them.
UniProt Q9Y265: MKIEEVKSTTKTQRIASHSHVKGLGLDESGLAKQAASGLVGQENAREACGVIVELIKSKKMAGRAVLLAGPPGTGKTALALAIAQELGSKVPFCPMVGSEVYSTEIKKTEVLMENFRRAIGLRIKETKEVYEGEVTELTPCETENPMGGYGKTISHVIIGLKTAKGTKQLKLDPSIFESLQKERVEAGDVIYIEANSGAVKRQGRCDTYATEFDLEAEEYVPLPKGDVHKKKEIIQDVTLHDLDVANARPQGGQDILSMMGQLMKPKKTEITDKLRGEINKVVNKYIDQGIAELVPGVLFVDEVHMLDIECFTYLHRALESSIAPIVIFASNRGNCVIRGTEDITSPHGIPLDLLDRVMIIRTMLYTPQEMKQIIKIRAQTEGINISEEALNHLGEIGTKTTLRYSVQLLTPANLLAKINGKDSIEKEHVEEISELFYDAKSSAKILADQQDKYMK

Test [1] has as its target T1, ITFG1-Myc (human LINKIN) (human) (UniProt Q8TB96).
T1 sequence: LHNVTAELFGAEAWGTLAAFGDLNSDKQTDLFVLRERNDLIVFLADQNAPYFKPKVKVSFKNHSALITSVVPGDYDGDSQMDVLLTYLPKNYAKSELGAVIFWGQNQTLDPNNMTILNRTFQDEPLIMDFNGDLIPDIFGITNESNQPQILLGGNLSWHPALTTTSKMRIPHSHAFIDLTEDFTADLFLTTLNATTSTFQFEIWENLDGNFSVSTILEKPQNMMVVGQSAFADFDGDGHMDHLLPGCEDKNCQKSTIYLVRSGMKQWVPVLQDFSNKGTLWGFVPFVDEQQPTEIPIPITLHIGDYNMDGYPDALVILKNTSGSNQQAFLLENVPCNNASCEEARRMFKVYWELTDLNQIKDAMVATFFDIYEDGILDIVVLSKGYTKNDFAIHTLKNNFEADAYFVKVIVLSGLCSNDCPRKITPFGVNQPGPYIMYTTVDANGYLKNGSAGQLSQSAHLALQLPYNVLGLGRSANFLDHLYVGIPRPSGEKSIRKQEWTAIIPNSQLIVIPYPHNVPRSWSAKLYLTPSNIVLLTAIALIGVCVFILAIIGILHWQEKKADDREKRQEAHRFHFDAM
Description: co-IP; Myc-beads immunoprecipitation from ITFG1-Myc-transfected and non-transfected HEK 293T cells; Western blot with antibodies against RUVBL1, RUVBL2, α-tubulin, β-tubulin and β-actin.

The target of another test is Flag-RUVBL1 (human) (UniProt Q9Y265). Description: co-IP; membrane fraction (Mem-PER Plus kit) of HEK 293T cells transfected with ITFG1-Myc, Flag-RUVBL1 and HA-RUVBL2; Flag-beads immunoprecipitation of Flag-RUVBL1; Western blot; control cells with Myc vector. In general terms: In western blotting, separated proteins are transferred to a membrane and probed.

Results are given in words; binding and its absence hold for the method and conditions named. In cells and extracts the contact can be indirect. Some entries that bind do so weakly or less than the wild type. Where a sequence is shown, tags or fusion partners need not be part of it.

For RUVBL1 (from UniProt Q9Y265 1-456), in test [1], the binding entry was “binds”.

B1: ITFG1-Myc (human LINKIN) (protein, UniProt Q8TB96 34-612)
chain: LHNVTAELFGAEAWGTLAAFGDLNSDKQTDLFVLRERNDLIVFLADQNAPYFKPKVKVSFKNHSALITSVVPGDYDGDSQMDVLLTYLPKNYAKSELGAVIFWGQNQTLDPNNMTILNRTFQDEPLIMDFNGDLIPDIFGITNESNQPQILLGGNLSWHPALTTTSKMRIPHSHAFIDLTEDFTADLFLTTLNATTSTFQFEIWENLDGNFSVSTILEKPQNMMVVGQSAFADFDGDGHMDHLLPGCEDKNCQKSTIYLVRSGMKQWVPVLQDFSNKGTLWGFVPFVDEQQPTEIPIPITLHIGDYNMDGYPDALVILKNTSGSNQQAFLLENVPCNNASCEEARRMFKVYWELTDLNQIKDAMVATFFDIYEDGILDIVVLSKGYTKNDFAIHTLKNNFEADAYFVKVIVLSGLCSNDCPRKITPFGVNQPGPYIMYTTVDANGYLKNGSAGQLSQSAHLALQLPYNVLGLGRSANFLDHLYVGIPRPSGEKSIRKQEWTAIIPNSQLIVIPYPHNVPRSWSAKLYLTPSNIVLLTAIALIGVCVFILAIIGILHWQEKKADDREKRQEAHRFHFDAM
In the case of B1, the binding entry in the test with Flag-RUVBL1 (human) is recorded as “binds”.
